The other results are listed elsewhere or left out. Shown are side measurements of this screen, not its main read-out; they come without a call. The list favours compounds with an active or inconclusive main result. The note in brackets gives the kind of curve behind each potency; many fits are weak.
Assay: qHTS Assay to Find Inhibitors of Chronic Active B-Cell Receptor Signaling
Details: ABC-DLBCL IkBa-CBG/CBR reporter, luminescence ratio (green luciferase fused to IkBa over red control in TMD8 lymphoma cells), 4 h
Method in brief: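 TMD8 human ABC-DLBCL cells with doxycycline-inducible IκBα–green luciferase fusion and unfused red luciferase, in 0.5% FBS medium; compounds up to 46 uM, 4 h at 37C. Green/red luminescence ratio, filter-overlap corrected, fitted to concentration-response curves.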

[1] = measured here: CBR red luminescence, cell number
[2] = measured here: IkBa-CBG green luminescence

SMILES	AC50 [1]	AC50 [2]
CCOc1ccc(N=C2NC(=O)S/C2=C\c2ccc(N(C)C)cc2)cc1	0.794 µM [rising, full curve, poor fit]	–
O=C(Nc1ccc2c(c1)CCC2)Nc1ccc(F)cc1F	0.891 µM [falling, full curve, poor fit]	–
COc1cccc2cc(C(=O)N3CCc4ccccc4C3)c(=O)oc12	31.6 µM [falling, partial curve, poor fit]	–
COc1cc(NC(=S)N2CCCCC2C)cc(OC)c1OC (stereo not given)	35.5 µM [rising, single point]	–
Brc1ccccc1-c1nnc(CSc2nnnn2-c2ccccc2)o1	6.51 µM [rising, single point]	–
CC(=O)Nc1ccc(Nc2cc(C)nc3c(-c4ccc(Cl)cc4)c(C)nn23)cc1	29.1 µM [falling, single point]	–
O=C(Cc1ccc(-c2ccccc2)cc1)NCc1ccccc1	1.3 µM [rising, full curve]	1.84 µM [falling, full curve]
COc1ccccc1-c1nc(SCC(=O)N2CCOCC2)n[nH]1	5.01 µM [falling, full curve]	–
CCn1c(=O)cc(SCC(=O)N2CCN(Cc3ccc4c(c3)OCO4)CC2)c2ccccc21	2.82 µM [rising, single point]	–
Cc1ccc(/C=C2/NC(=O)N(Cc3ccccc3)C2=O)s1	25.1 µM [falling, single point]	–
CCOC(=O)c1c(-c2ccc(C)o2)csc1NC(=O)CN1CCN(CC)CC1	2.59 µM [rising, partial curve]	–
Cc1ccc(S(=O)(=O)/C(C#N)=C/c2c(N3CCCCC3)nc3ccccn3c2=O)cc1	0.447 µM [falling, full curve, poor fit]	3.98 µM [rising, single point]
CC(=O)c1sc(NC(=O)C=C(C)C)nc1C	3.66 µM [falling, partial curve]	1.84 µM [rising, partial curve, poor fit]
CCOc1cc(NCCN2CCOCC2)c([N+](=O)[O-])cc1OCC	6.31 µM [rising, single point]	–
CCOC1(OCC)C(c2ccc(N)cc2)C(C#N)(C#N)C1(OCC)OCC (stereo not given)	15.8 µM [falling, single point]	–
CC1CCN(c2oc(-c3ccccc3F)nc2C#N)CC1	7.31 µM [rising, partial curve, poor fit]	–
CCOC(=O)c1cc(-c2ccc(/C=N\n3cnnc3)o2)ccc1Cl	1.3 µM [falling, full curve, poor fit]	–

Shown as a markdown table: entries from further up.

| SMILES | AC50 [1] | AC50 [2] |
| --- | --- | --- |
| CCOc1ccc(N=C2NC(=O)S/C2=C\c2ccc(N(C)C)cc2)cc1 | 0.794 µM [rising, full curve, poor fit] | – |
| Brc1ccccc1-c1nnc(CSc2nnnn2-c2ccccc2)o1 | 6.51 µM [rising, single point] | – |
